Earlier results in patent US20260345508A1, “[…] CHLORIDE HYDRATE-CONTAINING SILICON NANOPARTICLE COMPOSITION AND TECHNOLOGY OF APPLYING SAME” (priority 2022, published 2026).
For at least one compound, name, drawing or mass did not settle the structure.

Tested on: gram-positive bacteria including staphylococci, as well as other fungi
Settings: Wikipedia

For `CCCCCCCCCCCCCCCC[n+]1ccccc1` [CPC, cetylpyridinium chloride hydrate], the Bactericidal action is given as “strong bactericidal action”.
